Data reported in the supplement of paper PMC12819154, “High-throughput peptide-centric local stability assay extends protein–ligand identification to membrane proteins, tissues and bacteria” (Nature Structural & Molecular Biology, 2025).
Some of the results follow. Most values lie at the level of the controls, where differences are scatter.

Amino acid sequences for entries named in this document (tags omitted). A change or cut given only in a name is not applied to a line headed by its entry.
UniProt Q9D8U2: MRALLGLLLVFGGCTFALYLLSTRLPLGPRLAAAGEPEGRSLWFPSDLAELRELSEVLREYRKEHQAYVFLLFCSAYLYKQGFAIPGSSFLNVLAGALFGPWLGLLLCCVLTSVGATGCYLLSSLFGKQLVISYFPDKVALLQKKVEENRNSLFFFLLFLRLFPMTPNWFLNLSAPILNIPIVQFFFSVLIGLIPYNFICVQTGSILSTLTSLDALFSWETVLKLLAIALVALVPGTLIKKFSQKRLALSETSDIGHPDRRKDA
UniProt Q9D8B1: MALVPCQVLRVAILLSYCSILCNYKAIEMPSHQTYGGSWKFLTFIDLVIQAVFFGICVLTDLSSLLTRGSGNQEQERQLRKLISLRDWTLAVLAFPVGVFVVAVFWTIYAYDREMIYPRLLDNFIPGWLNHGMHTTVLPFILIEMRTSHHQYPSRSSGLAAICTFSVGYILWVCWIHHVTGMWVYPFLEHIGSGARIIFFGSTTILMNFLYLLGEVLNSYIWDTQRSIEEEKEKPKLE
UniProt Q9CY66: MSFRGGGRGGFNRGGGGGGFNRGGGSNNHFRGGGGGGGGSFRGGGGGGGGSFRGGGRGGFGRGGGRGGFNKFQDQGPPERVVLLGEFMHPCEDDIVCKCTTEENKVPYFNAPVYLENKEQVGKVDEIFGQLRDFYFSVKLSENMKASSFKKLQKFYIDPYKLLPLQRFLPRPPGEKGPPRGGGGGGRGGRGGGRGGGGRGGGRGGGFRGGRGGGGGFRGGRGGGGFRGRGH
UniProt Q9D8B7: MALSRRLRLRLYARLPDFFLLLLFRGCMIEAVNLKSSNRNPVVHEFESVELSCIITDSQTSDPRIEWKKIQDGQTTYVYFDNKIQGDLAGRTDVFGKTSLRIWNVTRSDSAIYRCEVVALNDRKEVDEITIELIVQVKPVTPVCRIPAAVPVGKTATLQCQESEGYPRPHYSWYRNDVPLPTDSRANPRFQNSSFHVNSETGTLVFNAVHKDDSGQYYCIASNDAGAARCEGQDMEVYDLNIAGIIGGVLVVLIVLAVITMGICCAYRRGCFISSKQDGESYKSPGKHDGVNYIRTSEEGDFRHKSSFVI
UniProt Q9D1G5: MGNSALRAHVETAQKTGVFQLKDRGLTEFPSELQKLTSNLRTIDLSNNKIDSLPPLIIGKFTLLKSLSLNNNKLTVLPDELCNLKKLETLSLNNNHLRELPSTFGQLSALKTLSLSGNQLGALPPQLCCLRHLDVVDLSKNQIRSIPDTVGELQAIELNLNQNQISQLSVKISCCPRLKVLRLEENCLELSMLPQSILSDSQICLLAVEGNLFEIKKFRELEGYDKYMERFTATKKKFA
UniProt Q9DC16: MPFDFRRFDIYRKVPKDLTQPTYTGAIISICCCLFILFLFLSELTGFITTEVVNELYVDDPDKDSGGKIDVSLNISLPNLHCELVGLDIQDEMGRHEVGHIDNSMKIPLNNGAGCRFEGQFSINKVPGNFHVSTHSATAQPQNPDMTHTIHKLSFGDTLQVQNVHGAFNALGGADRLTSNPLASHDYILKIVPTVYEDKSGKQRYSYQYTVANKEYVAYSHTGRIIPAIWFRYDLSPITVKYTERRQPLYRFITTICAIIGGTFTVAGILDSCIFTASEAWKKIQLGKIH
UniProt Q9D0S9: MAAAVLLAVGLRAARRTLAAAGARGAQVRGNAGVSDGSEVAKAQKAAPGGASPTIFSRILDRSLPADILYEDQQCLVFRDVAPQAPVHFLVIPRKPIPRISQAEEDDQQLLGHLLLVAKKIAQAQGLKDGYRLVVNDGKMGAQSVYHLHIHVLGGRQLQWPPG
UniProt Q9D6Y7: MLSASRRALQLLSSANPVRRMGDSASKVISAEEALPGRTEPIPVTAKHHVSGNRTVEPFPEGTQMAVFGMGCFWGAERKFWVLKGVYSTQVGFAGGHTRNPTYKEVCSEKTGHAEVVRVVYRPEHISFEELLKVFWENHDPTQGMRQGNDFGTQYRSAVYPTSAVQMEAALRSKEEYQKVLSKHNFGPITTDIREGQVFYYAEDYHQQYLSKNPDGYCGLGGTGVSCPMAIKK
UniProt Q9D8C4: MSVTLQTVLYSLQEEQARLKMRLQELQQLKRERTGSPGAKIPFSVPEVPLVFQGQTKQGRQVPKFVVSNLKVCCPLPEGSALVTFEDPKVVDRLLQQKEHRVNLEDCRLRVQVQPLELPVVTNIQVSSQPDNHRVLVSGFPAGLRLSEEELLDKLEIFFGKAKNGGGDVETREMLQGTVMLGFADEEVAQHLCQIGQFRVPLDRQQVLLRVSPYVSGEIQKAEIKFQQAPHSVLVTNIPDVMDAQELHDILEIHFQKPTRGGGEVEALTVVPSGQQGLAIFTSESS
UniProt Q9D517: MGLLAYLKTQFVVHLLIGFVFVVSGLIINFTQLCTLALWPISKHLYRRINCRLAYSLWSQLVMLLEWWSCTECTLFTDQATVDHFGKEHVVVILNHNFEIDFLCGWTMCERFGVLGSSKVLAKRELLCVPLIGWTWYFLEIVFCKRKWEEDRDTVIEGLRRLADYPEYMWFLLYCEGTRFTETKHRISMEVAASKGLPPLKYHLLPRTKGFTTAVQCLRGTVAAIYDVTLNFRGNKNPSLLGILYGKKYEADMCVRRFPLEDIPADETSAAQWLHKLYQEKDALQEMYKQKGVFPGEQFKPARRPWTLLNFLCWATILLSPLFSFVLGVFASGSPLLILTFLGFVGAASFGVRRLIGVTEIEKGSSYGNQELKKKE
UniProt Q9DBR0: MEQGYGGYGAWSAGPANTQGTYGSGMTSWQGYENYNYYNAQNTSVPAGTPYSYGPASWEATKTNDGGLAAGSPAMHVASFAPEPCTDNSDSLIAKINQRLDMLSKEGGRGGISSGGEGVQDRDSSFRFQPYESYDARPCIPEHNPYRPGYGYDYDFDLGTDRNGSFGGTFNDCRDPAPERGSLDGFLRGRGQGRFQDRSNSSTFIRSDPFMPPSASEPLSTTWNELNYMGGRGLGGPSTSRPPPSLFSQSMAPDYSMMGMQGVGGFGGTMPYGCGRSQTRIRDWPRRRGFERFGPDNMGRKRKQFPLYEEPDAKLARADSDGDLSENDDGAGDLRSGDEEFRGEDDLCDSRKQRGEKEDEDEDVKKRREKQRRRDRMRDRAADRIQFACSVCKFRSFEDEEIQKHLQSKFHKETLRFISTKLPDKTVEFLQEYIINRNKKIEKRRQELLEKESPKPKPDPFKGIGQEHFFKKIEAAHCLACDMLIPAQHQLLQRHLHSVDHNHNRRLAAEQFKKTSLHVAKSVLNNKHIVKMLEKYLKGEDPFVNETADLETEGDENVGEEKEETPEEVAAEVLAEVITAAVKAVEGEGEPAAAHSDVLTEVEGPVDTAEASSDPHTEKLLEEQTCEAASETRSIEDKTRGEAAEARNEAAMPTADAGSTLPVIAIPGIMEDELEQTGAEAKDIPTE
UniProt Q9CZD3: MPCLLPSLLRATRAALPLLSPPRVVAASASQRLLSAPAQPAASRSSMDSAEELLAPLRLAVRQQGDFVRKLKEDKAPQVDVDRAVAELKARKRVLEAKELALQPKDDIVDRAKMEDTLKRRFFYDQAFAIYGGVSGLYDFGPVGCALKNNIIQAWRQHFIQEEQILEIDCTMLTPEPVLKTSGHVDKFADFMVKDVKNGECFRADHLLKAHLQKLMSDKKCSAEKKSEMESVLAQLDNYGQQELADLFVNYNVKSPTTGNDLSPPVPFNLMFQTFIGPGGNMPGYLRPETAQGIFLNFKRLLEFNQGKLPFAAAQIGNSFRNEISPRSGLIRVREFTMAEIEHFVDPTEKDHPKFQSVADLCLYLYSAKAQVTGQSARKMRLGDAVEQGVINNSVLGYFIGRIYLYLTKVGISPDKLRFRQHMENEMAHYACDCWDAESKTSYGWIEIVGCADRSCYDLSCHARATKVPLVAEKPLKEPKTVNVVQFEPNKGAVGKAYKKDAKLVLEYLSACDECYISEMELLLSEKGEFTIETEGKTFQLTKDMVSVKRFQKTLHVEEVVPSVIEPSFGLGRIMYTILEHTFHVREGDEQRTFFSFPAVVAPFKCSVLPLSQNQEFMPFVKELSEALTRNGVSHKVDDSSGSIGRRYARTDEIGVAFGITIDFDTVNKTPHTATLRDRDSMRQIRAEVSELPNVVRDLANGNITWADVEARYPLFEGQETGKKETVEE
UniProt Q9CZ28: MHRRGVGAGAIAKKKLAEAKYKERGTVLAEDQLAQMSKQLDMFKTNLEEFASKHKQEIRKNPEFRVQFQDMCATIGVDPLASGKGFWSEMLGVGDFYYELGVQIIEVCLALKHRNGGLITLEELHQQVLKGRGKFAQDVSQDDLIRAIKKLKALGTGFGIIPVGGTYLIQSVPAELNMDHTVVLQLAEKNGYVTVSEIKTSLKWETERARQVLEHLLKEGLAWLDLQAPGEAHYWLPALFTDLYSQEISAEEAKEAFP
UniProt Q9D6K5: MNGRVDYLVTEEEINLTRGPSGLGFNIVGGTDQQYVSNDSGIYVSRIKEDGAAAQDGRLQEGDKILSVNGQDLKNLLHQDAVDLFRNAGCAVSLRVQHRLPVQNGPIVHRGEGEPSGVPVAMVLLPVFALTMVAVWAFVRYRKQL
UniProt Q9D662: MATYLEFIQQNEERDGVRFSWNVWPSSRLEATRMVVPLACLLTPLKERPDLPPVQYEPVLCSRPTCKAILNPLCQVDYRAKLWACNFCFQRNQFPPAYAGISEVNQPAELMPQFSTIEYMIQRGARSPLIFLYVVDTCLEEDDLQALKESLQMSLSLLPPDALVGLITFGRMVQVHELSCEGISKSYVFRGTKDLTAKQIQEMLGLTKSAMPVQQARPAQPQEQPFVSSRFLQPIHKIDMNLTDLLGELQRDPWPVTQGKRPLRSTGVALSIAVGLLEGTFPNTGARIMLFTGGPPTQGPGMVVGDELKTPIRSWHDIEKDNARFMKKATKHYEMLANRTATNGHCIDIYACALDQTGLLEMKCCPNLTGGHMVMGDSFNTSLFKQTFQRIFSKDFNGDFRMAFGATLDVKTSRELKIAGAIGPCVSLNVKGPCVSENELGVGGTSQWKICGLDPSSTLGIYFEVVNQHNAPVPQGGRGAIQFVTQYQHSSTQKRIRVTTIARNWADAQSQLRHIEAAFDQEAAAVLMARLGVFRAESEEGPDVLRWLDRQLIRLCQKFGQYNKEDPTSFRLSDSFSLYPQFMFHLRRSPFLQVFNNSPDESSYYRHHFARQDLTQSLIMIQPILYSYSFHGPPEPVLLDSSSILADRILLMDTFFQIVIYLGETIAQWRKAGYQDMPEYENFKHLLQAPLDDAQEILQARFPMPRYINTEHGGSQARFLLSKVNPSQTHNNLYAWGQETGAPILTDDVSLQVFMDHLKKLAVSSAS
UniProt Q9DBI0: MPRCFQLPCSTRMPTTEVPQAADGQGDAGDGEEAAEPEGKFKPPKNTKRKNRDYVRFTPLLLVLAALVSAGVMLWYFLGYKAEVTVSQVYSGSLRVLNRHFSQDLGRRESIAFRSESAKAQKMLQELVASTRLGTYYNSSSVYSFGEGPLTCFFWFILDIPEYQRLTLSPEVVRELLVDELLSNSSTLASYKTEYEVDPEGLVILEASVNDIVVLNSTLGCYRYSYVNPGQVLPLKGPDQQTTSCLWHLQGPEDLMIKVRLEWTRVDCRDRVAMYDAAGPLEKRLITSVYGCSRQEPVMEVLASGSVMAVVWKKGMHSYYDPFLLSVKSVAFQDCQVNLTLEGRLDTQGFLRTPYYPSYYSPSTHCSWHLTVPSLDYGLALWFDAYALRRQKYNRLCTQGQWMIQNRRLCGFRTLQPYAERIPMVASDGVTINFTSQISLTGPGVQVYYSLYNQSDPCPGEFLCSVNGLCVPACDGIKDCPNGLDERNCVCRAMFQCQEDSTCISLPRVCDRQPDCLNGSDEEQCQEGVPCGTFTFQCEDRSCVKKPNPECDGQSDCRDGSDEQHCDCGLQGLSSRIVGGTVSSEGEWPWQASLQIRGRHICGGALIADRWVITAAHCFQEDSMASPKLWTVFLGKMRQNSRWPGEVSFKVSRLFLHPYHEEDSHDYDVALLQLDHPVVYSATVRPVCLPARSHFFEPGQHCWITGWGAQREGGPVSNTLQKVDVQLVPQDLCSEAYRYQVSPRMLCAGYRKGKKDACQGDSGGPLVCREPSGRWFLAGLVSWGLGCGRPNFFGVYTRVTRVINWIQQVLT
UniProt Q9D8H7: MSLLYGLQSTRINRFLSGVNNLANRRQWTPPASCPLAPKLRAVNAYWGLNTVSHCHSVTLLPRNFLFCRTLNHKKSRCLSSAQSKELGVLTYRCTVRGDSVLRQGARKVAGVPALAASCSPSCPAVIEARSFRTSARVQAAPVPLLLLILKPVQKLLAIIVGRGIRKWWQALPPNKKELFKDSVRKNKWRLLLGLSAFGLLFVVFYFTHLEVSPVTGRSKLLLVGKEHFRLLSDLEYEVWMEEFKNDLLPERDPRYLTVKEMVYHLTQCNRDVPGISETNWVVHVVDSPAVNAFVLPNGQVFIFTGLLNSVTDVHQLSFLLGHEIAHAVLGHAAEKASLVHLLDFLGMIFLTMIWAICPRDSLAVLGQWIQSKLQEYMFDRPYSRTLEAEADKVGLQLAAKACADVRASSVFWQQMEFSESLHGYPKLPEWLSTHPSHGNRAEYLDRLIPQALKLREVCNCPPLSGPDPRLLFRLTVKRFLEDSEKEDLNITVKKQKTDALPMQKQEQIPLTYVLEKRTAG

The targets below were run with CN[C@@H]1C[C@H]2O[C@@](C)([C@@H]1OC)n1c3ccccc3c3c4c(c5c6ccccc6n2c5c31)C(=O)NC4 [staurosporine] (assay: log2 fold change of pooled soluble protein (PISA), ligand vs vehicle (log2 ratio); higher = more thermally stabilized). Details: ligand concentration: 20 uM; assay format: PISA pool 52.9/55.5/58.6 C.
UniProt Q9D7J4 was tested, and the “log2 fold change of pooled soluble protein” value (“log2 fold change” for short) was 0.0804. With UniProt Q9D8U2 the “log2 fold change” value was 0.0776. With UniProt Q9D6W8 the “log2 fold change” value was 0.117. UniProt Q9D1D4 was tested, and the “log2 fold change” value was -0.149. UniProt Q9D8B1 was tested, and the “log2 fold change” value was 0.354. For UniProt Q9D394, the “log2 fold change” value was 0.0119. For UniProt Q9CY66, the “log2 fold change” value was 0.0849. With UniProt Q9CZX7 the “log2 fold change” value was -0.0351. For UniProt Q9D8B7, the “log2 fold change” value was 0.482. For UniProt Q9D338, the “log2 fold change” value was 0.108. UniProt Q9D1G5 was tested, and the “log2 fold change” value was 0.00654. For UniProt Q9DC16, the “log2 fold change” value was -0.0519. In the case of UniProt Q9D0S9, the “log2 fold change” value is reported as -0.0762. With UniProt Q9DBJ1 the “log2 fold change” value was -0.0731. In the case of UniProt Q9D0R9, the “log2 fold change” value is reported as -0.0619. UniProt Q9CZP5 was tested, and the “log2 fold change” value was 0.00322. In the case of UniProt Q9D6Y7, the “log2 fold change” value is reported as -0.0137. With UniProt Q9DBL7 the “log2 fold change” value was 0.0115. With UniProt Q9CZ42 the “log2 fold change” value was -0.135. UniProt Q9D1N2 was tested, and the “log2 fold change” value was 0.0735. For UniProt Q9D8C4, the “log2 fold change” value was -0.0508. In the case of UniProt Q9D939, the “log2 fold change” value is reported as 0.199. With UniProt Q9D517 the “log2 fold change” value was 0.0514. In the case of UniProt Q9DBR0, the “log2 fold change” value is reported as -0.0305. With UniProt Q9DB25 the “log2 fold change” value was 0.194. For UniProt Q9D7B6, the “log2 fold change” value was -0.00832. With UniProt Q9CZD3 the “log2 fold change” value was -0.099. UniProt Q9D281 was tested, and the “log2 fold change” value was -0.145. With UniProt Q9D8W5 the “log2 fold change” value was -0.342. With UniProt Q9CZ28 the “log2 fold change” value was 0.0199. For UniProt Q9D8Z6, the “log2 fold change” value was -0.215. UniProt Q9D6K5 was tested, and the “log2 fold change” value was 0.0409. With UniProt Q9D662 the “log2 fold change” value was 0.0103. For UniProt Q9DBI0, the “log2 fold change” value was 0.11. For UniProt Q9D8H7, the “log2 fold change” value was 0.0365. UniProt Q9D273 was tested, and the “log2 fold change” value was -0.0452.
